Data: the supplement of paper PMC10849652
Some of the results follow.

Chains of the proteins cited; added tags and fusions are not shown. Lines headed by an entry give the natural chain unless they say otherwise; changes in a name come on top.
UniProt O14782: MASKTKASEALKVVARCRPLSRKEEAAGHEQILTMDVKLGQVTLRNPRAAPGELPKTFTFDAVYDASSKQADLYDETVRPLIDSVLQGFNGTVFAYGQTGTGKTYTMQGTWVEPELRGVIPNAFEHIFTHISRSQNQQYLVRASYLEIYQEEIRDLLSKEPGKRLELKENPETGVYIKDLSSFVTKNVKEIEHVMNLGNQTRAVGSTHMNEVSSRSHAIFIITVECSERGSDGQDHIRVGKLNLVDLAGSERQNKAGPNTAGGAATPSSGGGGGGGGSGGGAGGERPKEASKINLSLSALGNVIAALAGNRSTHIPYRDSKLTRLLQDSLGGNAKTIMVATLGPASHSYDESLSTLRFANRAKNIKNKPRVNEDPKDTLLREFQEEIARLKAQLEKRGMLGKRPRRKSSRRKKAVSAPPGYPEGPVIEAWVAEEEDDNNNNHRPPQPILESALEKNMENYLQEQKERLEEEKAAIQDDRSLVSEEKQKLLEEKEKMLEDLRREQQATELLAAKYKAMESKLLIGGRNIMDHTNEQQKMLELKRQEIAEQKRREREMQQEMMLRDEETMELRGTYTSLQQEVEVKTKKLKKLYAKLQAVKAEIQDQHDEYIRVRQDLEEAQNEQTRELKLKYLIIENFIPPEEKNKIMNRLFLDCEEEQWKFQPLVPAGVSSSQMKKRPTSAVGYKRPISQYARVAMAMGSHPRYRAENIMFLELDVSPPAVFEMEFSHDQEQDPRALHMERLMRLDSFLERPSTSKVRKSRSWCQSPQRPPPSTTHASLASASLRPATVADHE
UniProt Q8IXQ5, whole entry, looked up: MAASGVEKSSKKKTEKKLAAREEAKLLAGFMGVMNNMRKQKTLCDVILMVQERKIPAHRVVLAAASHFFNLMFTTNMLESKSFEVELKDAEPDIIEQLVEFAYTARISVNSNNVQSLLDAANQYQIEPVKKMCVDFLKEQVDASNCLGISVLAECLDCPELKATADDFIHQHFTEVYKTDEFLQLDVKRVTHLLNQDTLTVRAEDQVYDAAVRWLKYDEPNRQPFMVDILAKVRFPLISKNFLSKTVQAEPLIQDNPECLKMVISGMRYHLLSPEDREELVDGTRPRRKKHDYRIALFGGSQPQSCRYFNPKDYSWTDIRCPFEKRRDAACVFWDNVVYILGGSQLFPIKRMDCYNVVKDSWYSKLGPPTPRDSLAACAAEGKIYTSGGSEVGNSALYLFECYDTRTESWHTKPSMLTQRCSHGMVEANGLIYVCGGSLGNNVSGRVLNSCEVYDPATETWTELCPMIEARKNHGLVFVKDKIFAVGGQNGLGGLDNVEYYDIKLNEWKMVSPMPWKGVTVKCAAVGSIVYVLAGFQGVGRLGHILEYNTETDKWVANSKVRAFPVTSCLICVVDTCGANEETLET

What was measured:
Assay in all cases: log2 fold change, soluble protein after heating vs DMSO (PISA); higher = thermal stabilisation; K562 lysate, 10 uM; active = over 0.2 and 3.5 SD of the protein, either way, in both replicates (recomputed)
[1] = compound: CCCS(=O)(=O)Nc1ccc(F)c(C(=O)c2c[nH]c3ncc(Cl)cc23)c1F
Outline: (§1)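 Pellets of K562 cells were dounce-homogenised in PBS pH 7.4 with 1 mM MgCl2, and the crude extract was held at 1 mg/mL protein for a 30 min treatment with 10 μM compound. Aliquots were heated for 3 min over 48°C-58°C and pooled before NP-40 was added to 0.5% at 4°C. The supernatant from 21,000xg for 90 min was quantified by TMTpro 16plex LC-MS/MS with channel sums equalised. Values are reported from duplicates as log-two fold change in thermal stability relative to solvent controls.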

[2] = compound: CCN(CCCOc1ccc2c(Nc3cc(CC(=O)Nc4cccc(F)c4)[nH]n3)ncnc2c1)CCOP(=O)(O)O [barasertib]
Outline: as §1

[3] = compound: CC[C@@H]1C(=O)N(C)c2cnc(Nc3ccc(C(=O)N[C@H]4CC[C@H](N5CCN(CC6CC6)CC5)CC4)cc3OC)nc2N1C(C)C [volasertib]
Outline: as §1

[4] = compound: CN1CCN(CCOc2cc(OC3CCOCC3)c3c(Nc4c(Cl)ccc5c4OCO5)ncnc3c2)CC1 [saracatinib]
Outline: as §1

[5] = compound: CNC(=O)C1=CC=CC=C1NC2=NC(=NC=C2Cl)NC3=C(C=C(C=C3)N4CCOCC4)OC
Outline: as §1

[6] = compound: CNc1nc(-c2ccc3c(N)n[nH]c3c2)cc(N2C[C@@H](C(=O)NC3CCCCC3)CC[C@H]2C)n1
Outline: as §1

[7] = compound: COc1cc(Nc2ncc3c(n2)-c2ccc(Cl)cc2C(c2c(F)cccc2OC)=NC3)ccc1C(=O)O [alisertib]
Outline: as §1

[8] = compound: COc1cc2nc(-c3cc(F)ccc3O)nc(N[C@@H]3CNC[C@H]3C(C)(C)O)c2cc1OC
Outline: as §1

[9] = compound: COc1cc2ncnc(Nc3ccc(F)c(Cl)c3)c2cc1OCCCN1CCOCC1 [gefitinib]
Outline: as §1

[10] = compound: CCCS(=O)(=O)Nc1ccc(F)c(C(=O)c2c[nH]c3ncc(-c4ccc(Cl)cc4)cc23)c1F [vemurafenib]
Outline: as §1

[11] = compound: CNC(=O)c1ccc(Nc2ncc(C(F)(F)F)c(NCc3nccnc3N(C)S(C)(=O)=O)n2)cc1 [defactinib]
Outline: as §1

[12] = compound: CC[C@@H]1C(=O)N(C)c2cnc(Nc3ccc(C(=O)NC4CCN(C)CC4)cc3OC)nc2N1C1CCCC1
Outline: as §1

[13] = compound: CCn1c(C(=O)N(C2CC2)C2CC2)cc2c3c(ncn3C)c(Nc3cc(C)n(C)n3)nc21
Outline: as §1

[14] = compound: CCn1cc(-c2ccnc3[nH]c(-c4cccc(CN(C)C)c4)cc23)c(-c2ccc(NC(=O)N(C)C)cc2)n1
Outline: as §1

[15] = compound: CN1CCC(CNc2ccc3ncc(-c4cccc(OC(F)(F)F)c4)n3n2)CC1
Outline: as §1

[16] = compound: CN1CCN(c2nc(C3=C(c4c[nH]c5ccccc45)C(=O)NC3=O)c3ccccc3n2)CC1 [sotrastaurin]
Outline: as §1

[17] = compound: CN1CC[C@H](c2c(O)cc(O)c3c(=O)cc(-c4ccccc4Cl)oc23)[C@H](O)C1 [alvocidib]
Outline: as §1

[18] = compound: CN1CCc2c(c3ccccc3n2Cc2ccc(C(=O)NO)cc2)C1 [Tubastatin A]
Outline: as §1

[19] = compound: COC(=O)N[C@@H](C)CNc1nccc(-c2cn(C(C)C)nc2-c2cc(Cl)cc(NS(C)(=O)=O)c2F)n1 [encorafenib]
Outline: as §1

[20] = compound: COC(=O)[C@H](CCSC)NC(=O)C1=C(C=C(C=C1)NC[C@H](CS)N)C2=CC=CC=C2
Outline: as §1

Measured: log2 fold change

KIF21A (UniProt H0YI78)
inactive: [1] 0.017 | [2] -0.198 | [3] -0.008 | [4] -0.151 | [5] 0.056 | [6] -0.01 | [7] -0.003 | [8] 0.029 | [9] -0.1

LAPTM4A (UniProt Q15012)
inactive: [10] -0.05 | [4] 0.119 | [11] 0.289 | [6] -0.379

KIF3C (UniProt O14782)
inactive: [10] 0.565 | [1] -0.213 | [12] -0.296 | [3] 0.186 | [13] 0.018 | [14] -0.138 | [15] -0.037 | [4] 0.02 | [16] -0.022 | [17] 0.033 | [18] -0.018 | [5] -0.01 | [11] 0.157 | [6] 0.058 | [19] 0.101 | [20] 0.024 | [7] 0.247 | [8] 0.07 | [9] -0.029

KLHL7 isoform 3 (UniProt Q8IXQ5)
inactive: [10] -0.079 | [1] 0.091 | [12] -0.03 | [3] -0.073 | [13] -0.056 | [14] 0.88 | [15] 0.172 | [16] -0.015 | [17] -0.047 | [18] 0.075 | [11] 0.047 | [19] 0.07 | [20] 0.115 | [7] 0.058 | [8] -0.042 | [9] -0.069

KLHL7 (UniProt Q8IXQ5)
inactive: [10] -0.248 | [1] 0.084 | [12] 0.072 | [3] 0.029 | [13] 0.02 | [14] -0.09 | [15] 0.022 | [4] -0.016 | [16] 0 | [17] 0.187 | [18] -0.036 | [5] 0.038 | [11] -0.17 | [6] 0.107 | [19] 0.093 | [20] 0.065 | [7] -0.032 | [8] 0.029 | [9] -0.026
